Reference: patent US20200247901A1
Substitutions are numbered along the chain they refer to. No constants are given. Whether binding was seen depends on the method and setting. Some binding calls cover weakened binding; strength is not graded here. One block for each binder: values may come before it.

Sequences of proteins named here, by UniProt entry; tags and fusion partners are left off. A change or cut given only in a name is not applied to a line headed by its entry.
UniProt Q13421: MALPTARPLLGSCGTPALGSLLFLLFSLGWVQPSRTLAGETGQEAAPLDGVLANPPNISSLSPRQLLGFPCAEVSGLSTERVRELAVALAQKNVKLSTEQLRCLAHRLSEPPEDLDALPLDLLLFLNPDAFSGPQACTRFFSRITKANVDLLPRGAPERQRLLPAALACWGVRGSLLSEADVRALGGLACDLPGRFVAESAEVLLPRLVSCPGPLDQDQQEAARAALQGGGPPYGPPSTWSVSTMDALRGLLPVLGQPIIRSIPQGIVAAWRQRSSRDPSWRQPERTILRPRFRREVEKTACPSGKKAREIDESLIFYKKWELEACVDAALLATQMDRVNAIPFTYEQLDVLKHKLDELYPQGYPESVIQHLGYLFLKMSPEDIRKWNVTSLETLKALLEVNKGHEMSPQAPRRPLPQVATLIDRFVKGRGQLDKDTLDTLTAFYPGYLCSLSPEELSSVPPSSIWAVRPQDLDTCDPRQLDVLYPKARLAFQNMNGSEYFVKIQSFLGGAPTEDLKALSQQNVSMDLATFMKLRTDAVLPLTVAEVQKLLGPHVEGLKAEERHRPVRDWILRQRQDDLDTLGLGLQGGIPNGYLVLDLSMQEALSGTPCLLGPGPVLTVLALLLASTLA

Tests used:
[1] = target: MSLN(M)-rFc protein (human) (UniProt Q13421); assay: ELISA on coated MSLN(M)-Fc, anti-mouse IgG-HRP
[2] = target: MSLN(V)-rFc protein (human) (UniProt Q13421); assay: ELISA on coated MSLN(V)-Fc, anti-mouse IgG-HRP
[3] = target: mesothelin V variant (human) (UniProt Q13421); assay: stated in the shedding example (Example 9); assay not named
[4] = target: MSLN(M)-rFc protein (human) (UniProt Q13421); assay: ELISA on coated MSLN(M)-rFc (1 microgram/ml), anti-mouse IgG-HRP
[5] = target: MSLN(V)-rFc protein (human) (UniProt Q13421); assay: ELISA on coated MSLN(V)-rFc (1 microgram/ml), anti-mouse IgG-HRP

binding [1]: binds
binding [2]: binds
binding [3]: binds
binding [4]: binds
binding [5]: binds
B1: 15B6 anti-mesothelin antibody (IgG2b) (antibody, V domains shown)
VH: EVQLQQSGPVLVKPGASVKISCKASGYSFTGYYMHWVRQSLVKRLEWIGRINPYTGVPSYKHNFKDKASLTVDKSSSTAYMELHSLTSEDSAVYYCARELGGYWGQGTTLTVSS
VL: QAVVTQESALTTSPGETVTLTCRSSTGAVTTGNYPNWVQEKPDHLFTGLIAGTNNRAPGVPARFSGSLIGDKAALTITGAQTEDEAIYFCALWFSSHWVFGGGTKLTVL

binding [1]: binds
B2: 2B4 anti-mesothelin antibody (IgG2a) (antibody, V domains shown)
VH: EVQLQQSGPELVKPGASVKISCKASGYPFTGHYMHWVKQGHVKSLEWIGRINPYTGAINYNQNFKDKASLSVEKSSSTAYMGLHSLTSEDSAVYYCVRDLGGGYWGQGTTLTVSS
VL: B1 VL with G32S, P35A, T82P, Y88F, F94Y

binding [1]: binds
B3: 7B5 anti-mesothelin antibody (IgG1) (antibody, V domains shown)
VH: B2 VH with A16T, S71T
VL: B1 VL with G32S, P35A, T82P, I87M, Y88F, S95G
